Assay results taken from the supplement of paper PMC10849652.
This is one part of the list.

Compound: Cc1cccc(CC(=O)N2CCc3c2ccc(-c2cn(C)c4ncnc(N)c24)c3F)n1
Assay: log2 fold change, soluble protein after heating vs DMSO (PISA); higher = thermal stabilisation; K562 lysate, 10 uM; active = over 0.2 and 3.5 SD of the protein, either way, in both replicates (recomputed)
Procedure, shortened: (§1)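 Quantification was by TMTpro 16plex LC-MS/MS with equalised channel sums, applied to the supernatant after 21,000xg for 90 min. Samples were crude K562 extract at 1 mg/mL protein in PBS pH 7.4 with 1 mM MgCl2, treated with 10 μM compound for 30 min, heated for 3 min across 48°C-58°C, pooled and brought to 0.5% NP-40 at 4°C. Values are log-two fold changes in thermal stability relative to solvent controls, from duplicates.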

log2 fold change, inactive:
PRKCQ (UniProt Q04759) 0.068, PPP1R3D (UniProt O95685) 0.01, PPP5C (UniProt P53041) 0.014, PRMT9 (UniProt Q6P2P2) 0.052, PRKAR1B (UniProt P31321) 0.046, PRKX (UniProt P51817) 0.149, PRORP (UniProt O15091) 0.095, PRNP (UniProt P04156) -0.064, PRPF19 (UniProt Q9UMS4) -0.04, PPP2R5B (UniProt Q15173) -0.036, PRKD3 (UniProt O94806) 0.46, PPP6R1 (UniProt Q9UPN7) 0.008, PPP6C isoform 3 (UniProt O00743) 0.01, PRKACA (UniProt P17612) 0.151, PRKD2 isoform 3 (UniProt Q9BZL6) -0.01, PPP2R3B (UniProt Q9Y5P8) -0.068, PPP1R14C (UniProt Q8TAE6) 0.336, PRKDC (UniProt P78527) -0.074, PRG4 (UniProt Q92954) 0.278, PPP1R13L (UniProt Q8WUF5) 0.03, PRMT1 (UniProt Q99873) 0.103, PROS1 (UniProt P07225) -0.015, PRKCA (UniProt P17252) -0.079, PPP2CB (UniProt E5RHC1) 0.034, PPM1H (UniProt Q9ULR3) 0.038, PRADC1 (UniProt Q9BSG0) -0.087, PPP2R2D (UniProt Q66LE6) 0.046, PRMT7 (UniProt Q9NVM4) -0.008, PPP2R2A isoform 2 (UniProt P63151) 0.03, PPT1 (UniProt P50897) -0.008, PPP1CB (UniProt P62140) 0.007, PRPF6 (UniProt O94906) 0.031

Compound: Cc1cn(-c2cc(NC(=O)c3ccc(C)c(Nc4nccc(-c5cccnc5)n4)c3)cc(C(F)(F)F)c2)cn1 [nilotinib]
Assay: as above
Procedure, shortened: as §1

log2 fold change, inactive:
PPP4R4 (UniProt Q6NUP7) 0.103, PRKCQ (UniProt Q04759) -0.03, PPP1R3D (UniProt O95685) -0.034, PPP5C (UniProt P53041) 0.026, PRMT9 (UniProt Q6P2P2) 0.001, PRKAR1B (UniProt P31321) 0.011, PRKX (UniProt P51817) -0.038, PRORP (UniProt O15091) 0.137, PRNP (UniProt P04156) -0.033, PRPF19 (UniProt Q9UMS4) 0.004, PRKD3 (UniProt O94806) 0.054, PPP6R1 (UniProt Q9UPN7) 0.009, PPP6C isoform 3 (UniProt O00743) 0.029, PRKACA (UniProt P17612) -0.055, PRKD2 isoform 3 (UniProt Q9BZL6) 0.079, PPP1R14C (UniProt Q8TAE6) 0.075, PRKDC (UniProt P78527) -0.015, PRG4 (UniProt Q92954) -0.092, PPP1R13L (UniProt Q8WUF5) 0.179, PRMT1 (UniProt Q99873) 0.002, PROS1 (UniProt P07225) -0.022, PRKCA (UniProt P17252) -0.008, PPP2CB (UniProt E5RHC1) -0.156, PRADC1 (UniProt Q9BSG0) 0.1, PPP2R2D (UniProt Q66LE6) 0.042, PRMT7 (UniProt Q9NVM4) 0.039, PPP2R2A isoform 2 (UniProt P63151) -0.005, PPT1 (UniProt P50897) 0.018, PPP1CB (UniProt P62140) 0.007, PRPF6 (UniProt O94906) -0.001

Compound: Cc1nc(Nc2n[nH]c3c2CN(C(=O)N[C@H](CN(C)C)c2ccccc2)C3(C)C)c2sccc2n1
Assay: as above
Procedure, shortened: as §1

log2 fold change, active:
PRKACA (UniProt P17612) 0.638

log2 fold change, inactive:
PPP4R4 (UniProt Q6NUP7) -0.088, PRKCQ (UniProt Q04759) 0.001, PPP1R3D (UniProt O95685) -0.088, PPP5C (UniProt P53041) -0.016, PRMT9 (UniProt Q6P2P2) 0.016, PRKAR1B (UniProt P31321) -0.056, PRKX (UniProt P51817) 0.338, PRORP (UniProt O15091) -0.176, PRNP (UniProt P04156) 0.053, PRPF19 (UniProt Q9UMS4) -0.023, PRKD3 (UniProt O94806) -0.086, PPP6R1 (UniProt Q9UPN7) 0.012, PPP6C isoform 3 (UniProt O00743) 0.012, PRKD2 isoform 3 (UniProt Q9BZL6) -0.229, PPP1R14C (UniProt Q8TAE6) -0.003, PRKDC (UniProt P78527) -0.01, PRG4 (UniProt Q92954) 0.196, PPP1R13L (UniProt Q8WUF5) -0.196, PRMT1 (UniProt Q99873) -0.024, PROS1 (UniProt P07225) 0.037, PRKCA (UniProt P17252) 0.227, PPP2CB (UniProt E5RHC1) -0.014, PRADC1 (UniProt Q9BSG0) -0.1, PPP2R2D (UniProt Q66LE6) -0.023, PRMT7 (UniProt Q9NVM4) -0.01, PPP2R2A isoform 2 (UniProt P63151) -0.015, PPT1 (UniProt P50897) -0.044, PPP1CB (UniProt P62140) -0.074, PRPF6 (UniProt O94906) 0.021
